From publication PMC10842940, “Establishment of dsDNA-dsDNA interactions by the condensin complex” (Molecular cell, 2023)
No constants are given. Whether binding was seen depends on the method and setting. Some entries that bind do so weakly or less than the wild type.

T1: Cnd2^Brn1 (fission yeast condensin kleisin subunit) (S. pombe) (UniProt Q9Y7R3)
T1 sequence: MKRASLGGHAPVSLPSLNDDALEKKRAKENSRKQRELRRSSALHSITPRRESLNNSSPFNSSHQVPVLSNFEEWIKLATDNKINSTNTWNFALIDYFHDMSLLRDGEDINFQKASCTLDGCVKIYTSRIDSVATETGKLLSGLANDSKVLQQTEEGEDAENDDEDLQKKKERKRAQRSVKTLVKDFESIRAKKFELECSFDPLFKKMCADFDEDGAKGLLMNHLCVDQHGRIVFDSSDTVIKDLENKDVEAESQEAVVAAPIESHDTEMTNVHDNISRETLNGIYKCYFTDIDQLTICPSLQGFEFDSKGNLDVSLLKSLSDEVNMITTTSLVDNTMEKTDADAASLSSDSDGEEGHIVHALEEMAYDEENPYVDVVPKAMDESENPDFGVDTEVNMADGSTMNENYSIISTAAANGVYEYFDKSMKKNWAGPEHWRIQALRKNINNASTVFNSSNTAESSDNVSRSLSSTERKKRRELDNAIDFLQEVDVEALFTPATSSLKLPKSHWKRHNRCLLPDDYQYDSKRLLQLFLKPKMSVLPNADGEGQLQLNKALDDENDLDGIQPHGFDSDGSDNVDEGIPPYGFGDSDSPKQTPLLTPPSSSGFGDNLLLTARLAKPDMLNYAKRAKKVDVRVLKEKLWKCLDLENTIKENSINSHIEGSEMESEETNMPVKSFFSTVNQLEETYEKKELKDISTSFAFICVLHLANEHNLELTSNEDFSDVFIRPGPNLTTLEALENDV


What follows are binders tested against T1, Cnd2^Brn1 (fission yeast condensin kleisin subunit) (S. pombe) (assay: co-purification (IgG-agarose affinity, heparin, gel filtration); five subunits co-overexpressed in S. cerevisiae; extract bound to rabbit IgG-agarose through Cnd2-2xProtA, washed at 300 mM NaCl, eluted with 3C protease, then heparin column and Superose 6; 4°C).

| binding | Binder |
| --- | --- |
| binds | Cnd3^Ycg1 (fission yeast condensin HEAT-repeat subunit) (natural protein, S. pombe, UniProt Q10429 1-875, looked up, Cnd3 (Ycg1), S. pombe condensin HEAT-repeat subunit; cDNA cloned into an S. cerevisiae expression vector; also called Cnd3^CAP-G; source: S. cerevisiae (w303, pep4 deleted), co-overexpressed with the other four condensin subunits from GAL1-10 promoters; in cell extract, and purified as the complex (IgG-agarose, 3C protease elution, heparin, Superose 6)) MSCIQIISSSQTSIAGHRKLCNKLFTLRTQEGFETDILRALNIILTVKKGNSNADRVLRFLVTFVNYLQQKDPEIDIVQPILKHILRGLDAKDKTVRYRCCQIIARVVNCVKEIDDDLYNTLKEKLLSRVLDRESIVRLEAVVALSRLQEDTGDEENDVRNILLFLLQNDPSSEVRRSVLLNIEVSNSTLPFILERARDVDAANRKCVYARVLPKIGDFRYLSIKKRVRILKWGLNDRDESVEKAAADMLAYQWIENADNNLLELLERLDVSNNSDVAVLAIKKFFDVRVDSLSQLEFPEQFWLELTAESSLLARTFNEICIEKNYTDLLDKMPEVVQLTYYIERQYVSLRDKSSYDESCFIIEQLLYIGLSQDMVDEIGRRKLLKSLTNSLSTMALPDSLISLHIELLRKLCSSENDFCSLLVEIITEVFEQGHSQNQTEEQGNSNAPELNKNDYEGEEITVSQKSPSPSLPPNELNEPEPDDMDGYKEAFNELRCLSYVQCLFENITSSLNENLYMVDMLKTLIIPAVRSHDLPIREKGLECLSLVCLLNADLAFENVPLYLHCYEKGSVVLKCTAIRTLTDMLIQHGKAKFTEYEDAISSILFEALGEFENAELQTLGAEAIAKLLVILHYRDELFLKPLIIQYFEPNTVDNHALRQVLGYFFPVYAFGAHENQWRIATIFCDALLSLLEIYRDLDEDDVQLSIGHIAQQMLDWTDNEKLYERKTQTGDDYIALNHNVHLHLANMIFESLPNASEGKERKFMISLLGKLKIPTDLPSSDYQRTKRKLETYESHGFTMDSTSLSILAKFERMLLQNEEARSKFEETEEERLMENAEENEHAGAEAISGEIIPDTVEANMEDEEEVYVKQEEDL |
| binds | Cut14^Smc2 (fission yeast condensin SMC subunit) (protein, UniProt P41003 1-1172) MKIEELIIDGFKSYAVRTVISNWDDQFNAITGLNGSGKSNILDAICFVLGITNMSTVRAQNLQDLIYKRGQAGITRASVTIVFNNRDPASSPIGFENHPQVSVTRQIIMGGTSKYLINGHRALQQNVQNLFQSVQLNINNPNFLIMQGRITKVLNMKATEILSMIEEASGTRMFEERKEKAFRTMQRKEAKVEEINTLLREEIEPRLTKLRTEKKTFLEYQHIYNDLERLSHLCTAYDYYKLSLKVEELTVQASQKHSHIAEMESSLQTSKQEVLILKEKIKKIEDERMRQMSVSSDRTLDSQLQTVNENITRISTSIELKNTALEEEHGDLQQIRGKAKELETLLRGKRKRLDEVLSVYEKRKDEHQSISKDFKSQEELISSLTTGLSTTEGHETGYSRKLHEARDTLNDFKAEKETNRLKLEGLNKQISLTKPKKAEATKRCDQLNREIDILQNHVEKLKMSLKNTNSDITGEDVLQQKLKQLAKDRGNLLNELDALKSKLAYMEFTYTDPTPNFDRSKVKGLVAQLLTLNEENYDKQTALEITAGGRLYNLIVETEKIGAQLLQKGNLKRRVTIIPLNKITSFVASAERVGAAKKISNNKAQLALELIGYDDELLPAMQYVFGSTLVCDTPESAKKVTFHPSVKLKSVTLDGDVYDPSGTLTGGSVNKSAGPLLQIQKLNSLQLKLQVVTSEYEKLETQLKDLKTQNANFHRLEQEIQLKQHELTLLIEQRETDSSFRLLSDYQQYKDDVKDLKQRLPELDRLILQSDQAIKKIERDMQEWKHNKGSKMAELEKEFNQYKHKLDEFTPILEKSENDYNGVKLECEQLEGELQNHQQSLVQGESTTSLIKTEIAELELSLVNEEHNRKKLTELIEIESAKFSGLNKEIDSLSTSMKTFESEINNGELTIQKLNHEFDRLEREKSVAITAINHLEKENDWIDGQKQHFGKQGTIFDFHSQNMRQCREQLHNLKPRFASMRKAINPKVMDMIDGVEKKEAKLRSMIKTIHRDKKKIQDTVKSIDRFKRSALEKTWREVNSSFGEIFDELLPGNSAELQPPENKEFTDGLEIHVKIGSIWKDSLAELSGGQRSLVALALIMSLLKYKPAPMYILDEIDAALDLSHTQNIGRLIKTKFKGSQFIIVSLKEGMFTNANRLFHVRFMDGSSVVQAR |
| binds | Cut3^Smc4 (fission yeast condensin SMC subunit) (protein, UniProt P41004 1-1324) MSDKGIFRTSSTPSIVDVTPDRGERPRKLVRSVLESPSQKDVASIVKIEQTPSRPFFNDFLKKRITDSLNERPNLLNKFMSAQDGTPSKSTGFNERSSQLVSEFTTTEDIENCEETTQVLPPRLVVYELRLTNFKSYAGTQIVGPFHPSFSSIVGPNGSGKSNVIDALLFVFGFRASKLRQSKASALIHKSATHPSLDSCDVEITFKEVNSDFTYVDGSELTVRRTAYKNNTSKYFVNGVESSFSAVSNLLKEKGIDLNHKRFLILQGEVESIAQMKPRAISEGDDGLLEYLEDIIGTSKYKPIIEENMQELSNSDDICAEKESRLKLVLSEKAKLEDSKNSVLSFLKDENELFMKQNQLYRTILYETRNKKTLVQNLLNSLEGKLQAHLEKFEQTERDISEKNEEVKSLREKAAKVKNDCTSEKKTRQSYEQQTVKIEEQLKFLLNKEKKLKKSIEALSFEKSEAENSLSSHDIDSQKLNSEIADLSLRLQQEELSLDDIRKSLQGKTEGISNAIEEKQKAMAPALEKINQLTSEKQILQVELDMLLNKENDLINDVESSQSSLDKLRNDAEENRNILSSKLKVLSDLKGEKKDVSKNIERKKETVHNTYRNLMSNRTKLEEMKASLSSSRSRGNVLESLQRLHESDNLNGFFGRLGDLATIDEAYDVAISTACPALNHIVVDNIETGQKCVAFLRSNNLGRASFIILKELAQKNLARIQTPENVPRLFDLLRFNDQKFAPAFYNVLQNTLVAKNLEQANRIAYGKTRWRVVTLSGQLIDKSGTMTGGGTRVKKGGMSSAITSDVSPASVETCDKQVQLEDTRYRQHLSELESLNQRFTEISERIPSAELEISKLQLDVSACDRLVAGEERRILQLKSDLKSIRNNNERKRNLQNKISNMDKEVEAININNEGLVTEIKTLQDKIMEIGGIRYRIQKSKVDDLHEQLKFVKDKLNKMSFKKKKNEQRSQSFQVELSNLTSEYDTTTESIATLKTELQSLNKYVDEHKSRLREFENALWDINSSIDELVKFIEFESKQMNSVKAERIELENQIQEQRTALSEVGNNENKYLKLMSNLKLHNLTEFCDQTTMDSTFPEYSEDELSSVDKSELVSNISVLKKKTEDREVDINVLSEYRRCNKEAEKRDSDYQSELQKRTDLKKVVTDLQSQRLDEFMYGFGIISMKLKEMYQIITMGGNAELELVDSLDPFSEGVLFSVMPPKKSWKNISNLSGGEKTLSSLALVFALHNYKPTPLYVMDEIDAALDFKNVSIVANYIKERTKNAQFIVISLRSNMFELSSRLVGIYKTANMTKSVTINNKEILTD |
